Patent US20100196282A1 (priority 2007, published 2010)

Assay: general procedure: Fmoc solid-phase peptide synthesis; Rink Amide Novagel; HBTU
Settings: conjugation step

In the case of “Ac-Ala-Gly-Ser-Cys-Tyr-Cys-Ser-Gly-Pro-Pro-Arg-Phe-Glu-Cys-Trp-Cys-Tyr-Glu-Thr-GlU-Gly-Thr-Gly-Gly-Gly-Lys-NH2”, the conjugation yield is reported as 44%.
